This series can be described thus: Baseline fluorescence ratio Ro of probe in absence of analyte. Conditions: Table 5; baseline ratio, no analyte.

B1: L2P2E11: FABP probe, substitutions M18I G31F vs SEQ ID NO: 2 (protein, listed as Rattus norvegicus)
chain: AFDGTWKVDRNENYEKFIEKMGINVVKRKLFAHDNLKLTITQEGNKFTVKESSNFRNIDVVFELGVDFAYSLADGTELTGTWTMEGNKLVGKFKRVDNGKELIAVREISGNELIQTYTYEGVEAKRIFKKE
modifications: PEPTIDE (1)...(131) wild-type rat intestinal fatty acid binding protein
Turning to B1, the Ro is listed as 0.31.

The values above are taken from patent US20060257938A1, “Method of screening for drugs that block ligand binding to a lipid binding protein” (priority 2005, published 2006).
